Data taken from the supplement of paper PMC10849652.
The other results are listed elsewhere or left out.

By UniProt entry, the sequences of proteins in these tests, tags left out. Where a name states a change or a piece, a line headed by the entry shows the natural chain unless it says otherwise.
UniProt Q9NRG4: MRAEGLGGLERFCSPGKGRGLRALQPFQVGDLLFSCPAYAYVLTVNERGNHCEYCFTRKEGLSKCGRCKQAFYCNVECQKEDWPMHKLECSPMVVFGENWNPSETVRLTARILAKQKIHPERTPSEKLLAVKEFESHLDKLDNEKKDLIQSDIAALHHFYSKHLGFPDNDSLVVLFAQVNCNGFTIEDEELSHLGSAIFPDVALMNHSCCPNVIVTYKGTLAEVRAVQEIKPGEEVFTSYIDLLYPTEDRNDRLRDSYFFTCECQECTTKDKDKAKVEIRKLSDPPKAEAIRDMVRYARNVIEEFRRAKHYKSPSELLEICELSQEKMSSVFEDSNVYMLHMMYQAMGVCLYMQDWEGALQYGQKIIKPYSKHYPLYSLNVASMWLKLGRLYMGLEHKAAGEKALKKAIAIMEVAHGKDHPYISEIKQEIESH
UniProt O60271: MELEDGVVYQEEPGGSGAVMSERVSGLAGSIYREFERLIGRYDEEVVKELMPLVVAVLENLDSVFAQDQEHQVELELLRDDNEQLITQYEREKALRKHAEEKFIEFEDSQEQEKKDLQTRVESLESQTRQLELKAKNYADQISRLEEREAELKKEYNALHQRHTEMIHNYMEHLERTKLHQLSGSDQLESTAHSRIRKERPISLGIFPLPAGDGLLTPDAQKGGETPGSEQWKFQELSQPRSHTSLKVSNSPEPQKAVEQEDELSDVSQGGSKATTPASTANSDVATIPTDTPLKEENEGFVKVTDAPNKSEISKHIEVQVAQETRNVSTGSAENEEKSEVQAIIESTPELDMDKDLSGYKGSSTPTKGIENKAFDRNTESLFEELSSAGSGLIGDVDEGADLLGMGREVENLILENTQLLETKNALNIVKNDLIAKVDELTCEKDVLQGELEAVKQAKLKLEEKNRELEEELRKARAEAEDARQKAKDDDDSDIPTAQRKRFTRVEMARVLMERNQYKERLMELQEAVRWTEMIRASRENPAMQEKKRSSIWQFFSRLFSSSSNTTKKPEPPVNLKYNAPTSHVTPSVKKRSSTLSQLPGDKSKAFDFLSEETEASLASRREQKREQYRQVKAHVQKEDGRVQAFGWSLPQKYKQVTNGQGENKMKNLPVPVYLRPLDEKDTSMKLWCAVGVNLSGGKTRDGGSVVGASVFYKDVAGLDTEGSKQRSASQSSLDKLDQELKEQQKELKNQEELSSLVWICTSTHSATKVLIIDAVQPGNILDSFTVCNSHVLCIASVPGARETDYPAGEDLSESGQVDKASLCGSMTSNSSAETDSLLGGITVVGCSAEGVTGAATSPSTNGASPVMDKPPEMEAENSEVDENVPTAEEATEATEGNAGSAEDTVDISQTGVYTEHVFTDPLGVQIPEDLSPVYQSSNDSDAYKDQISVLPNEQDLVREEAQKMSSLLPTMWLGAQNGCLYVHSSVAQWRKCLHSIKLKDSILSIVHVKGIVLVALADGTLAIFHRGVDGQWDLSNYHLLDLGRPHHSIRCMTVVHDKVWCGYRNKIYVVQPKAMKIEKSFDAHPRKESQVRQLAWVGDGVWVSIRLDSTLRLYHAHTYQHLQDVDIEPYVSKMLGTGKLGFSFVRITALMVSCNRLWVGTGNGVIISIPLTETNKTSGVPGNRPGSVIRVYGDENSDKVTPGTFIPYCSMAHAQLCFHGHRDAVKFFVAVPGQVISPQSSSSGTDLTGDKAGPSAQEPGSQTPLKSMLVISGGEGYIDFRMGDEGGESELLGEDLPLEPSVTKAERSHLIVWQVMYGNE
UniProt Q92925, whole entry, looked up: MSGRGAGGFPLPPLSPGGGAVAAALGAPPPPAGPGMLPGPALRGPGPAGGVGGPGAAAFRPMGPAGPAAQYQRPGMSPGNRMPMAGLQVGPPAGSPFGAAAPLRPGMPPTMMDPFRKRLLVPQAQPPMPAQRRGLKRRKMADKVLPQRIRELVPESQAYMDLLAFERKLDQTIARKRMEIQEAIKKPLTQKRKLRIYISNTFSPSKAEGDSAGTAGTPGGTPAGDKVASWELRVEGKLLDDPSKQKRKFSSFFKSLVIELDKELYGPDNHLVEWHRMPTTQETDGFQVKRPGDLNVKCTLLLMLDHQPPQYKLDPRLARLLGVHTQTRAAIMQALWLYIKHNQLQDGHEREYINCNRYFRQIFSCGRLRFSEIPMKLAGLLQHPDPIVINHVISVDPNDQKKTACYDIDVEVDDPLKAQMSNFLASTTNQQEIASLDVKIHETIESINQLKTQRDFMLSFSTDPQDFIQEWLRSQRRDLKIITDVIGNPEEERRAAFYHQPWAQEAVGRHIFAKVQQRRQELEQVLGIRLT
UniProt Q96R06: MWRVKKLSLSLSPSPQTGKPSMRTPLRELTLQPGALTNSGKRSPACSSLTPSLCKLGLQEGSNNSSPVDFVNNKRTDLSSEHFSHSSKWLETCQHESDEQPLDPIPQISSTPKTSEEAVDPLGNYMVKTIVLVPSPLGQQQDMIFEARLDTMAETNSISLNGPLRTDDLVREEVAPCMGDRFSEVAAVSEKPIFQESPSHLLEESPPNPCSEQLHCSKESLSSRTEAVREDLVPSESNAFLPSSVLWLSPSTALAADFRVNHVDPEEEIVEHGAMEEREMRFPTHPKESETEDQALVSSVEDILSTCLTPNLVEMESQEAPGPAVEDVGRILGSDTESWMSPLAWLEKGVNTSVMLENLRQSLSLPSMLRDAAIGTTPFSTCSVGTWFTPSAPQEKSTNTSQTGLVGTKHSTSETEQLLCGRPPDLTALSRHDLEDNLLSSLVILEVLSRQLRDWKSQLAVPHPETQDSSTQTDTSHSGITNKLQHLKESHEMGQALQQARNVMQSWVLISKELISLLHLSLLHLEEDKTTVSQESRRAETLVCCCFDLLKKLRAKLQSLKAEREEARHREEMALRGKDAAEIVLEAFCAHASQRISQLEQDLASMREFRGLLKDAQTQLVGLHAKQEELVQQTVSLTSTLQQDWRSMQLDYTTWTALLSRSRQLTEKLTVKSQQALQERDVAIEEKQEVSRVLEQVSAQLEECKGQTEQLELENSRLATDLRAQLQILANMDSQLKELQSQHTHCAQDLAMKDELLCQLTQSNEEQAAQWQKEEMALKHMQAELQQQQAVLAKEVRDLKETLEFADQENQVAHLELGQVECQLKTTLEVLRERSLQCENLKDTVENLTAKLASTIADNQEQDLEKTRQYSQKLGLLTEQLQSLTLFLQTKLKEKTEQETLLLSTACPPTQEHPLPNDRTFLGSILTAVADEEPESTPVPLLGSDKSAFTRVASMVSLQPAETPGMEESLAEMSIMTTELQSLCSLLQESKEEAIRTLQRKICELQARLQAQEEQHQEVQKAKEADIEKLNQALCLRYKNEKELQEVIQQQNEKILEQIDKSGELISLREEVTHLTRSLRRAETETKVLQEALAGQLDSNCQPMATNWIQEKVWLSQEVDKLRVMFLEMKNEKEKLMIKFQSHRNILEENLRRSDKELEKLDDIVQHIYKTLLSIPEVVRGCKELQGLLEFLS
UniProt P09012, whole entry, looked up: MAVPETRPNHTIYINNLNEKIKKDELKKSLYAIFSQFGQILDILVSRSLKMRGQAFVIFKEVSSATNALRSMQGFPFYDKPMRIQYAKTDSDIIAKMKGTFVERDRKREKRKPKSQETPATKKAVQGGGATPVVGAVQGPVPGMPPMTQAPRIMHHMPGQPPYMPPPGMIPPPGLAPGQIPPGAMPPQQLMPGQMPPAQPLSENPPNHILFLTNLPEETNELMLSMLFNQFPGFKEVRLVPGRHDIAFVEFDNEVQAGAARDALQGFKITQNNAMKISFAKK
UniProt O14508, whole entry, looked up: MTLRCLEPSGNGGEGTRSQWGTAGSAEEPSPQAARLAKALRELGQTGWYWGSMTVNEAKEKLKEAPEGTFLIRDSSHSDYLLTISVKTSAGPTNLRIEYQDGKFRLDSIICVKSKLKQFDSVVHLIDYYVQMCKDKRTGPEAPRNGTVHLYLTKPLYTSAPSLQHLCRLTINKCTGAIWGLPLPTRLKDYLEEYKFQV
UniProt Q02446, whole entry, looked up: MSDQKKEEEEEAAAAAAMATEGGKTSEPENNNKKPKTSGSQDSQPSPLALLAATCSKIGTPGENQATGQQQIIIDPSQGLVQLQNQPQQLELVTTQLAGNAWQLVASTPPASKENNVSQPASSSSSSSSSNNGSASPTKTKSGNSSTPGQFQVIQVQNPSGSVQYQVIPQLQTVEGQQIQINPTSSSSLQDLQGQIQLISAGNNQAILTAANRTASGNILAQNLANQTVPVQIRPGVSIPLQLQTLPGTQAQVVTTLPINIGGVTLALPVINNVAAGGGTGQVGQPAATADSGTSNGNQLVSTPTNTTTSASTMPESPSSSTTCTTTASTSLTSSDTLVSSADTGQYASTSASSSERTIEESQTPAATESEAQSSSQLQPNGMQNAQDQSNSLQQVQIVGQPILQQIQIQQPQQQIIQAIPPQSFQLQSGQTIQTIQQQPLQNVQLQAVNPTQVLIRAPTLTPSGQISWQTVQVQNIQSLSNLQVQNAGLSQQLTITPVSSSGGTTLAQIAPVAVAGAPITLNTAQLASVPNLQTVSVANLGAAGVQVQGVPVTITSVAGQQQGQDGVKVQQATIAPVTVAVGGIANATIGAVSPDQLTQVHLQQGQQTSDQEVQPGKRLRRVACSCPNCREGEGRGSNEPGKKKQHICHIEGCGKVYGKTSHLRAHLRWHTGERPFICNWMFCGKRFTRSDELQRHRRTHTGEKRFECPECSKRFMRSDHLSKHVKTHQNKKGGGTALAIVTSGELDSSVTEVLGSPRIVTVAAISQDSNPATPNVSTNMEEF
UniProt P62316, whole entry, looked up: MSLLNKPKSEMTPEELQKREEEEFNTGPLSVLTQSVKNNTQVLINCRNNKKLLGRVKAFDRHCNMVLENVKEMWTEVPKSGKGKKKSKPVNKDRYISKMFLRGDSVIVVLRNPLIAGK
UniProt Q8IYR2: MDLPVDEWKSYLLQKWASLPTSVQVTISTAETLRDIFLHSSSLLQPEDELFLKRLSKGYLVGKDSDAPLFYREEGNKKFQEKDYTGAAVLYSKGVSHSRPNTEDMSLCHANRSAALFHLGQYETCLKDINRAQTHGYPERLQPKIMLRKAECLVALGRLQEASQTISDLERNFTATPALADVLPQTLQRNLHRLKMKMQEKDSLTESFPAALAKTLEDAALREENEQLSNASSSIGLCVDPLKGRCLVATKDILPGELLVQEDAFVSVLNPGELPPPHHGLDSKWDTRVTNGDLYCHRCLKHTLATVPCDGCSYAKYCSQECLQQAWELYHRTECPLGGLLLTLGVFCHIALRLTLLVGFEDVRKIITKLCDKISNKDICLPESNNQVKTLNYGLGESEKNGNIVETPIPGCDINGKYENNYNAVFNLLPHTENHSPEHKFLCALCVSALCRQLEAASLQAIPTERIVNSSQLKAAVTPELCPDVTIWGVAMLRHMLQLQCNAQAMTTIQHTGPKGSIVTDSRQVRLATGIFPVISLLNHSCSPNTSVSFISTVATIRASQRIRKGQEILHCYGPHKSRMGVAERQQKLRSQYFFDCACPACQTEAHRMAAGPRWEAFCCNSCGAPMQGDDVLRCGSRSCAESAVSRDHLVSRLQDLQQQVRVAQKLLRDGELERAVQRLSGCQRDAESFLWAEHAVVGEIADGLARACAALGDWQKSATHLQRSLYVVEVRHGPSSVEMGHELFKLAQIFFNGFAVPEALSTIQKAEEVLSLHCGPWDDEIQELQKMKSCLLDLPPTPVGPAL
UniProt Q96RF0: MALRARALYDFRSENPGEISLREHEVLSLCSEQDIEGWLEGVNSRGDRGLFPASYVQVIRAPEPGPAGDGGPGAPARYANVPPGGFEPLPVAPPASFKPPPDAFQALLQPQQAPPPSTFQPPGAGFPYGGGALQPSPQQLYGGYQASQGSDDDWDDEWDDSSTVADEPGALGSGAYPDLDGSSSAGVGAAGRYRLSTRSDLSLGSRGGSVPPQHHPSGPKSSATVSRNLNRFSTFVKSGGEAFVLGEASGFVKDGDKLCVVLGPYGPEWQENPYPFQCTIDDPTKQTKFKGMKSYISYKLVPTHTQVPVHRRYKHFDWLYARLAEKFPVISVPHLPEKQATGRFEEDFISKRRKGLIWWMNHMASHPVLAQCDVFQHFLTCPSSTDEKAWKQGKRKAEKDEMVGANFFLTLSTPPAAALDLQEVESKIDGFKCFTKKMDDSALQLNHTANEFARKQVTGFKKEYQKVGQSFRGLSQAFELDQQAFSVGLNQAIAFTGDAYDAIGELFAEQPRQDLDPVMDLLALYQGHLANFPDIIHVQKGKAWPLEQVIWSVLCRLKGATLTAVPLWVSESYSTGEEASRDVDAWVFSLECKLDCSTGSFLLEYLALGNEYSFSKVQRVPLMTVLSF
UniProt Q8WVI0: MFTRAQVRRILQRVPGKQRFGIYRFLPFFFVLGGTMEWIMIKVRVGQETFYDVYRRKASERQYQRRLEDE

Legend:
Experiment in all cases: log2 fold change, soluble protein after heating vs DMSO (PISA); higher = thermal stabilisation; K562 lysate, 10 uM; active = over 0.2 and 3.5 SD of the protein, either way, in both replicates (recomputed)
[1] = compound: C1=CC=C(C=C1)[C@H](COC2=CC3=C(C=C2)NC(=O)N3)NC(=O)C4=CC=CN(C4=O)CC5=CC(=C(C=C5)F)F
How it was run: (§1)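 The values are log-two fold changes in thermal stability compared with solvent controls and come from duplicates. They were obtained by TMTpro 16plex LC-MS/MS, with channel sums equalised, on the supernatant after 21,000xg for 90 min. That supernatant came from crude K562 extract at 1 mg/mL protein treated with 10 μM compound for 30 min, heated for 3 min across 48°C-58°C, pooled and brought to 0.5% NP-40 at 4°C.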

[2] = compound: CC1=C(SC2=C1C(=N[C@H](C3=NN=C(N32)C)CC(=O)N)C4=CC=C(C=C4)Cl)C
How it was run: as §1

[3] = compound: CC1=C2C(=CC=C1)N=C(N(C2=O)C3=CC=CC=C3C)CN4C=NC5=C(N=CN=C54)N
How it was run: as §1

[4] = compound: Cc1sc2c(c1C)C(c1ccc(Cl)cc1)=N[C@@H](CC(=O)OC(C)(C)C)c1nnc(C)n1-2
How it was run: as §1

[5] = compound: c1ccc([C@@H]2C[C@H]2NC2CCNCC2)cc1
How it was run: as §1

Measured: log2 fold change

SMYD2 (UniProt Q9NRG4)
inactive: [1] -0.008 | [2] -0.007 | [3] -0.009 | [4] 0.015 | [5] 0.034

SPAG9 isoform 4 (UniProt O60271)
inactive: [1] -0.021 | [2] -0.053 | [3] -0.17 | [5] 0.001

SMARCD2 (UniProt Q92925)
inactive: [1] 0.017 | [2] 0.013 | [3] 0.004 | [4] 0.023 | [5] 0.004

SPAG5 (UniProt Q96R06)
inactive: [1] 0.006 | [2] 0.004 | [3] 0.021 | [4] 0.013 | [5] 0.026

SNRPA (UniProt P09012)
inactive: [1] 0.012 | [2] 0.052 | [3] 0.022 | [4] -0.055 | [5] -0.012

SOCS2 (UniProt O14508)
inactive: [1] 0.053 | [2] -0.006 | [3] 0.077 | [4] 0.017 | [5] -0.025

SP4 (UniProt Q02446)
inactive: [1] -0.31 | [2] 0.325 | [3] 0.213 | [4] 0.061 | [5] -0.019

SNRPD2 (UniProt P62316)
inactive: [1] 0.039 | [2] -0.021 | [3] 0.028 | [4] -0.009 | [5] -0.068

2 records picked at random from the list so far:
SNRPD2 (UniProt P62316)
inactive: [1] 0.039 | [2] -0.021 | [3] 0.028 | [4] -0.009 | [5] -0.068

SP4 (UniProt Q02446)
inactive: [1] -0.31 | [2] 0.325 | [3] 0.213 | [4] 0.061 | [5] -0.019

Further results.

SMYD4 (UniProt Q8IYR2)
inactive: [4] 0.029 | [5] 0.153

SNX18 isoform 2 (UniProt Q96RF0)
inactive: [3] 0.082 | [5] 0.152

SMIM4 (UniProt Q8WVI0)
inactive: [1] 0.078 | [2] 0.05 | [5] 0.249
